Assay results from US8865222B2, “Beta-casein assemblies for enrichment of food and beverages and methods of preparation thereof” (Technion Research and Development Foundation Ltd., priority 2008, dated 2014).
At least one read-out could not be matched to a standard name with certainty.

Assay: Visual comparison of vitamin D solubilization, clarity and precipitation with and without beta-casein
Assay type: physicochemical

**Q.** Which results are given for `C=C1CC[C@H](O)C/C1=C/C=C1\CCC[C@]2(C)[C@@H]([C@H](C)/C=C/[C@H](C)C(C)C)CC[C@@H]12` [vitamin D, ergocalciferol]?
**A.** solubilization (added into beta-casein micellar solution (2 wt % in lactic acid, pH 2.6)): solubilized; solubilization (in lactic acid, without beta-casein): does not solubilize
